Publication PMC6367419 (Nature Communications, 2019)
No constants are given. Whether binding was seen depends on the method and setting.

Molecular target: EscN^29–446 (EPEC type III secretion system ATPase EscN, residues 29–446) (enteropathogenic Escherichia coli (EPEC) O127:H6 E2348/69) (UniProt B7UMA6)
Experiment: SEC + co-sedimentation; EscN alone without the transition state analogue; size exclusion chromatography, glycerol gradient centrifugation and negative-stain EM; both purified

B1: EscN^29–446 (EPEC type III secretion system ATPase EscN, residues 29–446) (enzyme)
chain: NSSTRYEGKIINIGGTIIKARLPKARIGAFYKIEPSQRLAEVIAIDEDEVFLLPFEHVSGMYCGQWLSYQGDEFKIRVGDALLGRLIDGIGRPMESNIVAPYLPFERSLYAEPPDPLLRQVIDQPFILGVRAIDGLLTCGIGQRIGIFAGSGVGKSTLLGMICNGASADIIVLALIGERGREVNEFLALLPQSTLSKCVLVVTTSDRPALERMKAAFTATTIAEYFRDQGKNVLLMMDSVTRYARAARDVGLASGEPDVRGGFPPSVFSSLPKLLERAGPAPKGSITAIYTVLLESDNVNDPIGDEVRSILDGHIVLTRELAEENHFPAIDIGLSASRVMHNVVTSEHLRAAAECKKLIATYKNVELLIRIGEYTMGQDPEADKAIKNRKLIQNFIQQSTKDISSYEKTIESLFKVVA
notes: also called T3SS ATPase; chains NA to NF; source: E. coli BL21 (λDE3), purified (HisTrap HP, thrombin cleavage, second HisTrap HP, desalting)
- binding: no binding (condition: without Mg2+ADP-AlF3)
